# Source: PubChem BioAssay AID504467 (National Center for Advancing Translational Sciences (NCATS), 2011)
# Out of some 330,000 compounds screened, about 7,700 (2.3%) were called active. The inconclusive results got no clear call from the source; some entries with a clear call stand among them for comparison. The call rests on the fitted dose curve; in most records, active means well fitted inhibition curve with a large enough effect; inconclusive means small, poorly fitted or top-dose-only effect, or effect the other way; inactive means flat fitted curve, though single readings scatter. A potency beside an inconclusive call is a rough fit, not a confirmed value.
# Assay: qHTS screen for small molecules that inhibit ELG1-dependent DNA repair in human embryonic kidney (HEK293T) cells expressing luciferase-tagged ELG1; further: nearly all actives have a fitted effect of over 55% in size
# Conditions: HEK293T ELG1-luciferase reporter, luminescence, 16 h, DNA damage induced by 5-fluorouridine; activity change, negative = inhibition: at 46.1 µM (top of the series)
# How it was run: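 Reporter activity after DNA damage by 5-fluorouridine is monitored. Compound-treated cells incubate 16 hr at 37 °C, then ONE-Glo is added for 30 min before luminescence reading.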
# On the % scale 0 is the no-effect control and ±100 the full control effect; potency means the concentration at half of the fitted maximal effect.
SMILES,Potency,"activity change, negative = inhibition"
Cc1cc(N2CCOCC2)ccc1/C=C1\NC(=O)N(Cc2ccccc2F)C1=O,inactive,
O=C(C1CCC(Cn2c(=O)[nH]c3ccccc3c2=O)CC1)N1CCN(c2ccccc2)CC1 (stereo unspecified),"inconclusive: 32.6 µM [inhibitor, single point]",
Cc1ccc(O)c(C(=O)CC(=O)c2ccccc2Cl)c1,inactive,
CC(=O)c1ccc[n+](CC(=O)NC(C)c2ccccc2)c1 (stereo unspecified),inactive,
Nc1nc2c(Cl)cc(Cl)cc2s1,"inconclusive: 14.6 µM [activator, partial curve]",
CCOc1ccccc1NC(=O)COC(=O)c1c[nH]c2ccccc12,inactive,
O=C(NCCc1ccccc1)c1ccccc1[N+](=O)[O-],"inconclusive: 23.1 µM [activator, partial curve]",
c1ccc(NC2=Nc3ccccc3CS2)cc1,"inconclusive: 8.2 µM [activator, partial curve]",
Cc1cccc(C(=O)NCC(=O)Nc2ccncc2)c1,inactive,
COCCCNC(=O)c1c(N)n(/N=C/c2cccnc2)c2nc3ccccc3nc12,"inconclusive: 5.17 µM [inhibitor, partial curve, poor fit]",
O=C(O)CCc1ccc(S(=O)(=O)Nc2ccccc2N2CCCCC2)cc1,"inconclusive: 10.3 µM [activator, partial curve, poor fit]",
O=C(Nc1c2c(nn1-c1cccc(Cl)c1)CS(=O)(=O)C2)c1ccco1,inactive,
Cc1ccc(/C=N/N=C/c2ccc(C)cc2)cc1,"inconclusive: 11.6 µM [activator, partial curve]",
S=c1nc(C2CC2)n(-c2ccccc2)[nH]1,inactive,
CCOC(=O)Cc1[nH]nc2c1C(C1C=CCCC1)C(C#N)=C(N)O2 (stereo unspecified),"inconclusive: 29.1 µM [inhibitor, single point]",
CN(c1ccccc1)S(=O)(=O)c1ccc(C(=O)NCC(c2ccco2)N2CCCCC2)cc1 (stereo unspecified),"inconclusive: 29.1 µM [inhibitor, single point]",
CCCCn1c(SCc2cccnc2)nc2c1c(=O)n(C)c(=O)n2C,inactive,
O=C(COC(=O)COc1ccc(Cl)cc1Br)NCc1cccs1,inactive,
CCC(=O)NC(=S)NNC(=O)c1ccc(NC(=O)c2ccccc2)cc1,inactive,
CCCn1nc(C(=O)Nc2nc(-c3ccccn3)cs2)c2ccccc2c1=O,active: 7.3 µM,
CCOC(=O)c1nc(Nc2cccc(C)c2)c2ccccc2n1,active: 16.4 µM,
Cc1cc(NC2CCCCC2)nc(NCc2ccccc2)n1,"inconclusive: 7.31 µM [inhibitor, partial curve, poor fit]",
Cc1cccc(-c2ccc3ncnc(NCc4cccs4)c3c2)c1,"inconclusive: 18.3 µM [inhibitor, single point]",
O=C(C[C@H]1C/C=C\C[C@H](Cc2ccc(F)cc2)C(=O)O[C@@H](c2ccccc2)CNC1=O)NCCO,inactive,
Cc1nc(NNC(=O)c2ccc(Cl)cc2Cl)cc(-c2ccccc2)n1,inactive,
CCOc1ccc(NS(=O)(=O)c2ccc(C(=O)N(C)Cc3cccc(OC)c3OC)cc2)cc1,active: 16.4 µM,

# Look-ups from the entries so far:
# CCOc1ccccc1NC(=O)COC(=O)c1c[nH]c2ccccc12 | Potency: inactive
# CC(=O)c1ccc[n+](CC(=O)NC(C)c2ccccc2)c1 (stereo unspecified) | Potency: inactive
# Cc1cc(N2CCOCC2)ccc1/C=C1\NC(=O)N(Cc2ccccc2F)C1=O | Potency: inactive
# COCCCNC(=O)c1c(N)n(/N=C/c2cccnc2)c2nc3ccccc3nc12 | Potency: inconclusive: 5.17 µM [inhibitor, partial curve, poor fit]

# Additional entries

SMILES,Potency,"activity change, negative = inhibition"
COc1cc(/C=N/NC(=O)Nc2cccc3nsnc23)cc(OC)c1OC,active: 2.31 µM,
CCOc1ccc(S(=O)(=O)NCCC(=O)N2CCN(c3ccc(OC)cc3)CC2)cc1,"inconclusive: 23.1 µM [inhibitor, partial curve]",
O=C(O)c1ccc(S(=O)(=O)N2CCC3(CC2)CC(=O)c2ccccc2O3)cc1,inactive,
COc1ccccc1CN(C)C(=O)c1ccc(S(=O)(=O)Nc2c(C)n(C)n(-c3ccccc3)c2=O)cc1,"inconclusive: 20.6 µM [inhibitor, single point]",
CC1=C(n2nnc3ccccc32)C(c2ccccc2)C(C#N)=C(N)O1 (stereo unspecified),inactive,
COc1ccc(CCNC(=O)C(NS(=O)(=O)c2cccc3nsnc23)C(C)C)cc1OC (stereo unspecified),inactive,
CCC(C)c1ccc(NC(=O)c2[nH]c(C)c(C(C)=O)c2C)cc1 (stereo unspecified),"inconclusive: 16.4 µM [activator, partial curve]",
CCOC(=O)c1c(C)[nH]c(C(=O)CSc2nnc(C3CC3)n2N)c1C,"inconclusive: 16.4 µM [inhibitor, partial curve, poor fit]",
CCOC(=O)Cc1csc(NC(=O)CSc2nnnn2-c2ccc(CC)cc2)n1,,inconclusive: 29.8% [activator]
Cc1csc(NC(=O)C(Cc2ccccc2)n2cccc2)n1 (stereo unspecified),"inconclusive: 18.4 µM [inhibitor, partial curve, poor fit]",
CC(NC(=O)CNC(=O)C1CCCCC1)c1ccc(S(N)(=O)=O)cc1 (stereo unspecified),inactive,
Cc1cc(Cn2nc(-c3ccccc3)cc2C(=O)NCc2cccc(Br)c2)on1,"inconclusive: 15.8 µM [inhibitor, partial curve]",
CCOC(=O)/C=c1\s/c(=C\c2ccc(C#N)cc2)c(=O)n1CC(=O)NCc1ccco1,inactive,
CCOC(=O)c1cn[nH]c1NC(=S)Nc1ccc(Cl)cc1,"inconclusive: 1.16 µM [activator, partial curve]",
CC1CCc2nc(NC(=O)CCSc3ccccc3)sc2C1 (stereo unspecified),"inconclusive: 25.9 µM [activator, partial curve]",
COc1ccccc1C(=O)COC(=O)c1c(-c2ccccc2)noc1C,"inconclusive: 9.2 µM [inhibitor, single point]",
Cc1nn2c(-c3cccc(NC(=O)CSc4nc5ccccc5o4)c3)nnc2c2ccccc12,"inconclusive: 9.2 µM [inhibitor, partial curve]",
CCN(C(=O)CSc1nnc(-c2ccc(F)cc2)n1C)C1CCS(=O)(=O)C1 (stereo unspecified),inactive,
COc1ccccc1CC(=O)N1CCN(S(=O)(=O)c2cccs2)CC1,inactive,
COc1ccc(Br)cc1CN(C)CC(=O)Nc1cccc(S(=O)(=O)N2CCCC2)c1,"inconclusive: 23.1 µM [inhibitor, single point]",
Cc1ccc2occ(/C=N/NC(=O)c3ccccc3C)c(=O)c2c1,"inconclusive: 6.51 µM [inhibitor, single point]",
Cc1cc2ccc3ccccc3c2cc1CN(C)C,"inconclusive: 29.1 µM [activator, single point]",
CN(c1ccc(Cl)cc1)c1cc(=O)n(C)c2ccccc12,"inconclusive: 3.26 µM [activator, full curve]",
COc1cccc2c(Nc3ccccc3C)cc(C)nc12,inactive,
N#CCSc1nnc(SCC#N)s1,inactive,
Cn1nc(C(F)(F)F)c2cc(C(=O)Nc3ccc(Cl)cc3)sc21,"inconclusive: 0.82 µM [activator, single point]",

SMILES,Potency,"activity change, negative = inhibition"
O=C(NCCc1ccccc1)c1ccccc1SCC(=O)N1CCCC1,"inconclusive: 23.1 µM [activator, partial curve]",
CC(C)Nc1nc(NC(C)C)nc(OCCOC(=O)Nc2ccccc2)n1,"inconclusive: 9.2 µM [activator, partial curve]",
O=C(CNC(=O)Cc1ccc(Cl)cc1)NCc1ccco1,inactive,
Cc1c(NC(=O)CSc2ccc3ccccc3n2)c(=O)n(-c2ccccc2)n1C,inactive,
CCOc1ccc(N(CC(=O)Nc2cccc(F)c2)S(=O)(=O)c2c(C)noc2C)cc1,"inconclusive: 23.1 µM [inhibitor, single point]",
Cc1ccc(-c2nn(-c3ccccc3)cc2C(=O)NCCCN2CCOCC2)cc1,inactive,
Oc1ccc(Cl)cc1C=Nc1ccccc1Br,inactive,
N/C(=N\OC(=O)c1ccc(Cl)cc1Cl)c1ccccn1,"inconclusive: 0.326 µM [activator, full curve]",
Cc1cc(NC(c2cccnc2)c2ccc3cccnc3c2O)no1 (stereo unspecified),"inconclusive: 3.26 µM [inhibitor, full curve]",
COc1cccc(-c2cc(C(F)(F)F)nc(-n3cc(C)cn3)n2)c1,"inconclusive: 29.1 µM [inhibitor, single point]",
CC(=O)Nc1ccc(OCc2nnc(-c3ccc(Cl)cc3)o2)cc1,"inconclusive: 14.6 µM [activator, partial curve, poor fit]",
O=C(CNC(=O)c1ccc(Br)cc1)Nc1ccc2c(c1)CCC2,inactive,
CCOc1ccc2nc(N3CCCN(C(=O)Nc4ccccc4C)CC3)c(C#N)cc2c1,"inconclusive: 17.8 µM [inhibitor, single point]",
Fc1ccc(CSc2ccc(-c3ccco3)nn2)cc1,"inconclusive: 16.4 µM [activator, partial curve]",
Cc1ccc(CNC(=O)c2cc3c(=O)n4ccccc4nc3n(CC3CCCO3)c2=N)cc1 (stereo unspecified),inactive,
Nc1cnccc1C(=O)O,inactive,
Cc1ccnc(NC(=O)COc2ccccc2[N+](=O)[O-])c1,"inconclusive: 1.64 µM [activator, full curve]",
Cc1ccc(Nc2nnc(SCC(=O)NCCN3C(=O)CSC3=O)s2)cc1C,"inconclusive: 9.2 µM [activator, partial curve]",
CN1CCc2c(sc3c2C(=O)NC(c2cccc(OC(=O)c4cccs4)c2)N3)C1 (stereo unspecified),"inconclusive: 20.6 µM [activator, partial curve]",
Cc1cc(C)c2c(c1)N[C@H](c1cccs1)[C@@H]1CCO[C@H]21,inactive,
COc1cccc(NC(=O)COc2ccccc2C(N)=O)c1,"inconclusive: 2.06 µM [activator, full curve]",
O=c1cc(NCc2ccccc2)nc2ccccn12,"inconclusive: 29.1 µM [activator, single point]",
CCn1nc(NS(=O)(=O)c2ccccc2)c2cc3ccccc3nc21,inactive,
COc1ccc(S(=O)(=O)N2CCC(Nc3ccccc3Cl)CC2)cc1,inactive,
